Data published in PMC3514319.
Positions count from the first letter of the chain named. Results are given in words; binding and its absence hold for the method and conditions named. Binding seen in cells or lysates may run through a third protein. Some binding calls cover weakened binding; strength is not graded here. Sequences can lack the tags named with a protein.

Tests used:
[1] = target: T1, HA-tagged Rab11 (Drosophila) (UniProt O18335); assay: co-IP; S2 cells co-transfected; lysis buffer 50 mM Tris-HCl pH 8.0, 100 mM NaCl, 1 mM EDTA, 1% Nonidet P-40; lysate incubated with anti-HA affinity gel 3 h at 4°C; Western blot with anti-HA and anti-FLAG
T1 sequence: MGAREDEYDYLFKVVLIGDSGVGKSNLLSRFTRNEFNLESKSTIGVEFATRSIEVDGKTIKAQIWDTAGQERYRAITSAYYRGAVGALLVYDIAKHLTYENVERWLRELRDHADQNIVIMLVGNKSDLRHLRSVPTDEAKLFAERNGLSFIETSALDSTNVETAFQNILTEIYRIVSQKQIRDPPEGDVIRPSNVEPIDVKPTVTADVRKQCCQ

[2] = target: T2, HA-tagged Rab11-DN (S25N) (Drosophila) (UniProt O18335); assay: co-IP; as a1, but EDTA removed from the lysis buffer to compare Rab11-DN and Rab11-CA; anti-HA affinity gel 3 h at 4°C; Western blot with anti-HA and anti-FLAG
T2 sequence: T1 sequence with S25N

[3] = target: T3, HA-tagged Rab11-CA (Q70L) (Drosophila) (UniProt O18335); assay: as above
T3 sequence: T1 sequence with Q70L

binding [1]: binds
binding [2]: binds
binding [3]: binds weakly
Substance: FLAG-tagged Crag (Calmodulin-binding protein related to a Rab3 GDP/GTP exchange protein) (from UniProt Q9W3D3 1-1671)
